Laboratory results reported in PubChem BioAssay AID2685 (National Center for Advancing Translational Sciences (NCATS), 2010).
Some of the results follow. These are further read-outs of the screen, such as a control signal, another cell line or another target. No call is given for them. Most of these compounds were active or inconclusive in the main read-out, so they are no random draw. The note in brackets gives the kind of curve behind each potency; many fits are weak.

Test: qHTS Assay for Lipid Storage Modulators in Drosophila S3 Cells;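 for cell number change: cells counted by Cell Tracker Red CMTPX staining in the red channel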
Conditions: BODIPY lipid droplet fluorescence, 18-24 h; for cell number change: measured here: cell count max response, cells fed with added oleic acid
In short: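 Drosophila S3 cells got compounds at several concentrations plus oleic acid (400 uM solution). Laser-scanning cytometry with 488 nm excitation read lipid droplets at 500-530 nm and cells at 575-640 nm. Percent activity was relative to 20 uM Triacsin C.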

[1] = measured here: lipid fluorescence (Fed channel) AC50, cells fed with added oleic acid
[2] = measured here: cell number channel AC50, cells fed with added oleic acid

SMILES | cell number change [%] | AC50 [1] | AC50 [2]
NS(=O)(=O)c1cc(C(=O)NCCOc2ccccc2)c(Cl)cc1Cl | 2.28 | 2.06 µM [falling, full curve, poor fit] | –
COCCN(Cc1cc2cc3c(cc2n2nnnc12)OCO3)C(=O)c1ccccc1F | 115 | – | 0.082 µM [rising, single point]
Cn1c2c(c(=O)n(C)c1=O)C(C(F)(F)F)(C(F)(F)F)N=C(c1ccc(Cl)cc1)N2 | -72.8 | 2.59 µM [falling, full curve] | 10.3 µM [falling, partial curve]
CC(NC(=O)/C(C#N)=C/c1cn[nH]c1-c1ccccc1)c1ccccc1 (stereo unspecified) | -35.4 | 23.1 µM [falling, single point] | 23.1 µM [falling, partial curve]
CCCCNC(=O)Nc1c(C(=O)OC)[nH]c2ccc(C)cc12 | 43 | 20.6 µM [rising, partial curve] | 0.00411 µM [rising, full curve, poor fit]
CCc1ccccc1N=C1S/C(=C/c2ccccc2OCC(=O)N2CCOCC2)C(=O)N1C | -55.5 | 20.6 µM [falling, partial curve] | 29.1 µM [falling, single point]
COc1ccc(C2C(C#N)=C(N)N(N(C)C)C3=C2C(=O)CC(C)(C)C3)cc1 (stereo unspecified) | -5.56 | 29.1 µM [falling, single point] | –
CN1/C(=C\C=N\O)C(C)(C)c2ccccc21 | – | – | 0.103 µM [rising, full curve, poor fit]
O=C(C1CCCC1)N1CCN(S(=O)(=O)c2cccc(Cl)c2Cl)CC1 | 11.7 | 6.51 µM [rising, single point] | –
CC(=O)Nc1cccc(NS(=O)(=O)Cc2ccc(Cl)cc2)c1 | -13.8 | 0.58 µM [rising, single point] | –
COc1ccc(OC)c(NC(=O)CSc2nnc(CNC(=O)c3ccco3)o2)c1 | – | 0.58 µM [rising, single point] | –
O=C1NCCCC1C(=O)NCCNC(=O)C(F)(F)F (stereo unspecified) | -25.2 | 4.11 µM [falling, full curve] | 4.11 µM [falling, full curve, poor fit]
CCN(c1ccc2c(c1)OCO2)S(=O)(=O)c1cc(Br)cc2c1N(C(=O)C1CC1)CC2 | – | 0.517 µM [rising, single point] | –
CC1C(c2ccccc2)N(C)C(c2ccccc2)CC1(O)c1ccc(F)cc1 (stereo unspecified) | -43.6 | 18.4 µM [falling, single point] | 14.6 µM [falling, single point]
CCOC(=O)c1cnc2ccc(C)cc2c1Sc1ccc(F)cc1 | -43.1 | – | 11.6 µM [falling, partial curve, poor fit]
C#CCOC(=O)CCCC(=O)NCCCCCCCC | -23.1 | 3.26 µM [falling, single point] | 0.517 µM [falling, full curve, poor fit]
Cc1[nH]c(=O)[nH]c(=O)c1S(=O)(=O)N1CCC(C(=O)N2CCN(c3cccc(C(F)(F)F)c3)CC2)CC1 | 73.7 | 9.2 µM [rising, partial curve] | 3.26 µM [rising, partial curve, poor fit]
COc1cccc(N(CC(=O)Nc2cccc(N(C)S(C)(=O)=O)c2)S(C)(=O)=O)c1 | -8.09 | – | –
COc1ccc(C2=C(C=Nc3c(C)n(C)n(-c4ccccc4)c3=O)C(c3ccccc3C)c3ccccc3O2)cc1OC (stereo unspecified) | 34.8 | 4.11 µM [rising, single point] | 1.64 µM [rising, full curve, poor fit]
CNC(=O)c1ccsc1NC(=O)C1CCN(S(=O)(=O)c2cccs2)CC1 | 16.9 | – | –
Cc1ccc(Nc2nc(-c3sc(NC(=O)c4ccco4)nc3C)cs2)cc1 | – | 0.461 µM [rising, partial curve, poor fit] | 0.291 µM [rising, partial curve, poor fit]
O=C(c1ccco1)N1CCN(Cc2nc3ccc([N+](=O)[O-])cc3c(=O)n2-c2ccccc2F)CC1 | – | 6.51 µM [falling, single point] | 1.84 µM [falling, partial curve]
Cc1ccccc1C(=O)O/N=C(\N)c1ccncc1 | 38.5 | 11.6 µM [rising, single point] | 25.9 µM [rising, single point]
CC(C)(C)C1CCC(=NNc2nc3ccccc3[nH]2)CC1 (stereo unspecified) | – | 0.82 µM [rising, full curve] | –
COc1cc(NS(=O)(=O)c2cc(C)ccc2OC)c(OC)cc1Cl | -9.66 | 1.46 µM [rising, full curve, poor fit] | –
CCn1c2c(c3cc(Br)ccc31)CCC/C2=N\O | -43.7 | 0.82 µM [rising, full curve, poor fit] | 29.1 µM [falling, single point]
COc1ccc(N(CC(=O)NCCSCc2c(F)cccc2Cl)S(C)(=O)=O)cc1OC | 36.9 | 20.6 µM [rising, partial curve] | 13 µM [rising, partial curve]
CCCCn1c(CN2CCN(CCO)CC2)nc2ccccc21 | -40.8 | 29.1 µM [falling, single point] | 29.1 µM [falling, single point]

Arranged by count of non-hydrogen atoms (largest number first): 5 of the compounds above.
SMILES | cell number change [%] | AC50 [1] | AC50 [2]
O=C(c1ccco1)N1CCN(Cc2nc3ccc([N+](=O)[O-])cc3c(=O)n2-c2ccccc2F)CC1 | – | 6.51 µM [falling, single point] | 1.84 µM [falling, partial curve]
COc1ccc(C2C(C#N)=C(N)N(N(C)C)C3=C2C(=O)CC(C)(C)C3)cc1 (stereo unspecified) | -5.56 | 29.1 µM [falling, single point] | –
CCCCNC(=O)Nc1c(C(=O)OC)[nH]c2ccc(C)cc12 | 43 | 20.6 µM [rising, partial curve] | 0.00411 µM [rising, full curve, poor fit]
CC(C)(C)C1CCC(=NNc2nc3ccccc3[nH]2)CC1 (stereo unspecified) | – | 0.82 µM [rising, full curve] | –
Cc1ccccc1C(=O)O/N=C(\N)c1ccncc1 | 38.5 | 11.6 µM [rising, single point] | 25.9 µM [rising, single point]

Continued.

SMILES | cell number change [%] | AC50 [1] | AC50 [2]
CC(=O)Oc1ccc2cc(-c3ccccc3)c(=O)oc2c1 | 12.1 | 4.11 µM [rising, full curve, poor fit] | –
COc1ccc(C2(c3ccc(OC)cc3)NC(=O)N(CC(=O)NC3CCCC3)C2=O)cc1 | -8.5 | – | –
CCCC(=O)Nc1ccc(N2CCCCC2)cc1 | 8.69 | 0.58 µM [falling, partial curve, poor fit] | –
CCN(CC)S(=O)(=O)c1ccc2oc(C(=O)NCC3COc4ccccc4O3)c(C)c2c1 (stereo unspecified) | – | 0.58 µM [falling, full curve] | –
Cn1cnnc1SCC(=O)NCCc1ccc(Cl)cc1Cl | 14 | – | –
CC(C)c1ccc(C2/C(=C(/O)c3ccc(F)cc3)C(=O)C(=O)N2CCCN2CCOCC2)cc1 (stereo unspecified) | 29.1 | 23.1 µM [rising, single point] | –
C/C(N)=C(/C#N)C(=O)CN1CCCCC1 | -17.6 | 2.31 µM [falling, full curve] | –
COc1ccc(C2C(C#N)=C(N)OC3=C2C(=O)CCC3)cc1OC (stereo unspecified) | 17.2 | 0.116 µM [rising, full curve, poor fit] | –
COc1ccc(-c2nc(CS(=O)CC(=O)NCc3ccc(C)cc3)c(C)o2)cc1OC (stereo unspecified) | – | 6.51 µM [rising, single point] | –
CN1C(=O)C(CC(=O)Nc2ccccc2F)N(NC(=O)c2ccc(Br)cc2)C1=S (stereo unspecified) | -37.1 | – | 25.9 µM [falling, partial curve, poor fit]
O=C1CCC(C(=O)N2CCSCC2)CN1CCc1cccc(F)c1 (stereo unspecified) | 1.51 | 0.00517 µM [rising, full curve, poor fit] | –
CC(=O)c1c(C)oc2ccc(NS(=O)(=O)c3ccc(F)cc3C)cc12 | 21.1 | – | –
O=S(=O)(c1ccc(F)cc1)N1CCC2(CC1)OCCN2S(=O)(=O)c1cccs1 | -10.7 | 20.6 µM [falling, single point] | –
Cn1c(N)c(C(=O)COC(=O)CCC(=O)c2ccc(F)cc2)c(=O)n(C)c1=O | 9.89 | – | –
CCN(CC)S(=O)(=O)c1ccc2c(c1)nc(CCC(=O)Nc1ccc3c(c1)OCO3)n2C | 27.1 | 0.411 µM [rising, full curve] | –
Cc1ccc(S(=O)(=O)N2CCN(C(=O)CSc3ncn[nH]3)CC2)c(C)c1 | – | 6.51 µM [rising, single point] | –
CCCOc1ccc(N2C(=O)C3ON(c4ccccc4)C(CCC)C3C2=O)cc1 (stereo unspecified) | – | 6.51 µM [falling, single point] | –
Cc1ccc(OCC(O)CN2CCN(CC(O)COC(C)C)CC2)c(C(C)(C)C)c1 (stereo unspecified) | 3.05 | 29.1 µM [rising, single point] | –
CCOc1cc(/C=C\[N+](=O)[O-])ccc1OCC(=O)N1CCOCC1 | -93.1 | 29.1 µM [falling, partial curve] | 8.2 µM [falling, partial curve]
CCc1ccc(-c2nc(CN3CCC(C(=O)N4CCN(c5ccccn5)CC4)CC3)c(C)o2)cc1 | -41.3 | 16.4 µM [falling, single point] | 29.1 µM [falling, single point]
COc1ccc2oc(C(=O)NN3C(C)CCCC3C)c(C)c2c1 (stereo unspecified) | -12.5 | – | –
O=C(NC(C(=O)O)c1ccccc1)c1ccccc1 (stereo unspecified) | 4.98 | – | –
Cc1[nH]c2ccccc2c1C(=O)CN1CCCC(C)C1 (stereo unspecified) | 12.4 | 0.13 µM [rising, full curve, poor fit] | –
Cc1ccccc1C(=O)Nc1ccc(-c2nc3ccc(C(=O)c4ccccc4)cc3[nH]2)cc1 | -26.3 | 29.1 µM [falling, single point] | 0.326 µM [rising, single point]
Cc1cccn2c(=O)c(C(=O)NCCCN3CCCCC3C)c(O)nc12 (stereo unspecified) | 58.8 | 29.1 µM [rising, single point] | 29.1 µM [rising, single point]
CN(C)c1ccc(NC(=O)c2sc(SCC(=O)Nc3nccs3)nc2N)cc1 | -8.86 | 2.31 µM [rising, partial curve] | –
CC(C)(Oc1ccc(Cl)cc1)C(=O)NC1=NN(c2ccccc2)C(=O)C1 | -58.6 | – | 16.4 µM [falling, single point]
